Results taken from ChEMBL document CHEMBL5465560, “Selectivity Literature for EUbOPEN Chemogenomic Library” (2024).

Protein sequences, listed by entry. Tags and fused reporters are not part of them. Lines headed by an entry give the natural chain unless they say otherwise; changes in a name come on top.
UniProt Q00526: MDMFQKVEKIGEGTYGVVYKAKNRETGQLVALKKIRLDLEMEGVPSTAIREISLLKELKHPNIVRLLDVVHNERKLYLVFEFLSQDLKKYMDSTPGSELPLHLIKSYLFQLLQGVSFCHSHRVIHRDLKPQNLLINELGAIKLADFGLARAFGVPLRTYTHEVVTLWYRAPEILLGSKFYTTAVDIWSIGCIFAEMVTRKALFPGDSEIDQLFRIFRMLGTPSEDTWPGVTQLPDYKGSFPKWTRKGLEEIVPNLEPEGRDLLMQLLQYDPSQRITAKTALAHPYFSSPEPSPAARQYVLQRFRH
UniProt P22607, whole entry G697C: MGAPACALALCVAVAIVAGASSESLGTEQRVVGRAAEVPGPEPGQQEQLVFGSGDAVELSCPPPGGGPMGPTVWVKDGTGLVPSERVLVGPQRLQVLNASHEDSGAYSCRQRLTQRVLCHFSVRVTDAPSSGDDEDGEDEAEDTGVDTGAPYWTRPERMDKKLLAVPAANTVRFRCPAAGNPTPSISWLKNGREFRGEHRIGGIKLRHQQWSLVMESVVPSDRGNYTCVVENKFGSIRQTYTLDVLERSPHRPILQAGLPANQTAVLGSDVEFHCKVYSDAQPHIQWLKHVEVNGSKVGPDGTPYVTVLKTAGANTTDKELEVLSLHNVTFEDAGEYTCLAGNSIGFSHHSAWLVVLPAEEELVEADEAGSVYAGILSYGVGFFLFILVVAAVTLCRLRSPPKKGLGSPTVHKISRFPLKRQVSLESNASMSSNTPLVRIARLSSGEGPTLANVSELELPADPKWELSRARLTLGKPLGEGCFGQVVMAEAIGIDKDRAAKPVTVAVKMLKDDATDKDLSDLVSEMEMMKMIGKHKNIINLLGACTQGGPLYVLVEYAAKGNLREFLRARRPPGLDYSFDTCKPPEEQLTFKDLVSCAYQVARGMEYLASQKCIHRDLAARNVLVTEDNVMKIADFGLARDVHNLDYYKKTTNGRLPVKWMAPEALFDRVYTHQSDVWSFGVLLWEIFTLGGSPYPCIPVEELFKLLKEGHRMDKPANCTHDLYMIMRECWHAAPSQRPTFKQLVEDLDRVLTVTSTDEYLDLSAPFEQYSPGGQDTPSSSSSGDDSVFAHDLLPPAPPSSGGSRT
UniProt P22607, whole entry, looked up: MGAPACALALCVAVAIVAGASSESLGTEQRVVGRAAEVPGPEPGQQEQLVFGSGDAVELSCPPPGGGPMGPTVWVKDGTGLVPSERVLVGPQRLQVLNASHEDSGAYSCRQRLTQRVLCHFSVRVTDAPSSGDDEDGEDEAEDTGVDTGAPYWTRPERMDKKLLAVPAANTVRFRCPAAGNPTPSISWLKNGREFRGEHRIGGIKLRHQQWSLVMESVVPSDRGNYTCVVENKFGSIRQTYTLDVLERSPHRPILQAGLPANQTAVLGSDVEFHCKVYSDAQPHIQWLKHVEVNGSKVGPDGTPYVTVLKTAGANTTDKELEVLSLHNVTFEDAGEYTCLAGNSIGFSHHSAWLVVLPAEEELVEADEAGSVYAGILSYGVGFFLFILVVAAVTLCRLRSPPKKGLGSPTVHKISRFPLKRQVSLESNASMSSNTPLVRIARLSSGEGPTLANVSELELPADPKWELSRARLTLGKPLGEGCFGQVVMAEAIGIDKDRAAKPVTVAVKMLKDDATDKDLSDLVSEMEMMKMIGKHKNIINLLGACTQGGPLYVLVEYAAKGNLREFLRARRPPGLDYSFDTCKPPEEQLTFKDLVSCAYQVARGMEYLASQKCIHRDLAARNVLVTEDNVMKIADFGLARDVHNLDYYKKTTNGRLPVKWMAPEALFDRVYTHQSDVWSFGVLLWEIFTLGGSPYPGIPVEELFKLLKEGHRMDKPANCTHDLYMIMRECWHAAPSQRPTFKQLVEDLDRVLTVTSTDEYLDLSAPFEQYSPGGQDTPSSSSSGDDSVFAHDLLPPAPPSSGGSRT
UniProt P49841: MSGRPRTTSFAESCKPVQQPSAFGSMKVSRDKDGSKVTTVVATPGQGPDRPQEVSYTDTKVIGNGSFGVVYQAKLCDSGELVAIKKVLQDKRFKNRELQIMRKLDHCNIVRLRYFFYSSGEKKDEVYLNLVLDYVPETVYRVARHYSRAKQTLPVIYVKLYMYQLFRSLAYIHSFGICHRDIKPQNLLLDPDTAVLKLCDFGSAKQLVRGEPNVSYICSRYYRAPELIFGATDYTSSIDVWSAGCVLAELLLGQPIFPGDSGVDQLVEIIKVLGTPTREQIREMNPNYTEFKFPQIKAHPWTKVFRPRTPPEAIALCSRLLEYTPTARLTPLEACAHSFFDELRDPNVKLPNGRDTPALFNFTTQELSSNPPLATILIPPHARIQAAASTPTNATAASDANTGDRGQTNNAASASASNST
UniProt O95819: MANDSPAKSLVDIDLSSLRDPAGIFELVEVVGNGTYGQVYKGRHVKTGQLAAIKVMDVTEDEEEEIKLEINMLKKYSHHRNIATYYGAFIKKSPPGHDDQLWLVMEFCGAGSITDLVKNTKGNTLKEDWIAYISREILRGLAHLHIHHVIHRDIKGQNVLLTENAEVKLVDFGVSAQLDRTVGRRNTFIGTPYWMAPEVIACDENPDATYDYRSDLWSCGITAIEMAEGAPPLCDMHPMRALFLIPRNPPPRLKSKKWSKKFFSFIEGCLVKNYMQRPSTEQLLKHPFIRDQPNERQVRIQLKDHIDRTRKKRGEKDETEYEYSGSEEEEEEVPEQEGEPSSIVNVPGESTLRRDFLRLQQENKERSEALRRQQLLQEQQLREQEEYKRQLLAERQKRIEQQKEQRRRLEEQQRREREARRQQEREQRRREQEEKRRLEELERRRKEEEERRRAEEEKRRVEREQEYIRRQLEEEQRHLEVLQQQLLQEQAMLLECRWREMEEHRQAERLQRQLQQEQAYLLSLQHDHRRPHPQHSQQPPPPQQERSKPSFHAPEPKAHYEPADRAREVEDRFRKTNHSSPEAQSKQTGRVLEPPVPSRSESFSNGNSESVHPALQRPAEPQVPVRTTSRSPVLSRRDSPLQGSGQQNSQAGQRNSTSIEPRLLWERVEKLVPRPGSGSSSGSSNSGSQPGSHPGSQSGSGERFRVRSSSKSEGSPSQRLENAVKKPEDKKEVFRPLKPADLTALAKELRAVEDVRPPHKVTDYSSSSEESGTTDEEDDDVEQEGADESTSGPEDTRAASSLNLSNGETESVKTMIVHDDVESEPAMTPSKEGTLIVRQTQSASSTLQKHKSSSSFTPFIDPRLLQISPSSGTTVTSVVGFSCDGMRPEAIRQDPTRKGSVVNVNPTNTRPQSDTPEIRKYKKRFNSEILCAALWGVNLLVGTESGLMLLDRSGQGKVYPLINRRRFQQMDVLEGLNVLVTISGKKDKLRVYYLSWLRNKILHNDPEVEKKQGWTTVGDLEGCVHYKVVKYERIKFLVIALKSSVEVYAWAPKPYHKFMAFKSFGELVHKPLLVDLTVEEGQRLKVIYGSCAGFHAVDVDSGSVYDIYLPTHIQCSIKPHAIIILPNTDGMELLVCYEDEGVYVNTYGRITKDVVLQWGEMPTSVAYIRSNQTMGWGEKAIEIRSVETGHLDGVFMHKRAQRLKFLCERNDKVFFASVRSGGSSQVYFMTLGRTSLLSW
UniProt P28482, whole entry: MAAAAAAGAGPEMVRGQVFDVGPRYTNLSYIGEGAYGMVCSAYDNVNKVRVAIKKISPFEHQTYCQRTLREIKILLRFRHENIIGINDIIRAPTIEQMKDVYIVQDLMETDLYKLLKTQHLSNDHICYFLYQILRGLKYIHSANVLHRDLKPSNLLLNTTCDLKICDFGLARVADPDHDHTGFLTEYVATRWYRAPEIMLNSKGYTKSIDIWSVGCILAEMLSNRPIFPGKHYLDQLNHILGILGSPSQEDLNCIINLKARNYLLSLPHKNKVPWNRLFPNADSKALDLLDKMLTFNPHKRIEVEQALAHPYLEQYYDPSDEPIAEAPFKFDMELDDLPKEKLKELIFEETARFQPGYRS
UniProt P49137, whole entry, looked up: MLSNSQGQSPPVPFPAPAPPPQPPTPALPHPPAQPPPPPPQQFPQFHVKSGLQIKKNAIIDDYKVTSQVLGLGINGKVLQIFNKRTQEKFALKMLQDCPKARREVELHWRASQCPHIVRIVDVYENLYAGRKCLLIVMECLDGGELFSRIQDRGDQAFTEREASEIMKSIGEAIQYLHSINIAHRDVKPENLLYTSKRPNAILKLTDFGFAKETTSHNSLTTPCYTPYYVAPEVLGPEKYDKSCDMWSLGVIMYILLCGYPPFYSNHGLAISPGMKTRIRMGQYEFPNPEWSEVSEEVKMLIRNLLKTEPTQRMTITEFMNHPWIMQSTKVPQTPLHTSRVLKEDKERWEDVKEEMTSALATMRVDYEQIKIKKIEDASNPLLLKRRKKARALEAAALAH
UniProt Q7KZI7: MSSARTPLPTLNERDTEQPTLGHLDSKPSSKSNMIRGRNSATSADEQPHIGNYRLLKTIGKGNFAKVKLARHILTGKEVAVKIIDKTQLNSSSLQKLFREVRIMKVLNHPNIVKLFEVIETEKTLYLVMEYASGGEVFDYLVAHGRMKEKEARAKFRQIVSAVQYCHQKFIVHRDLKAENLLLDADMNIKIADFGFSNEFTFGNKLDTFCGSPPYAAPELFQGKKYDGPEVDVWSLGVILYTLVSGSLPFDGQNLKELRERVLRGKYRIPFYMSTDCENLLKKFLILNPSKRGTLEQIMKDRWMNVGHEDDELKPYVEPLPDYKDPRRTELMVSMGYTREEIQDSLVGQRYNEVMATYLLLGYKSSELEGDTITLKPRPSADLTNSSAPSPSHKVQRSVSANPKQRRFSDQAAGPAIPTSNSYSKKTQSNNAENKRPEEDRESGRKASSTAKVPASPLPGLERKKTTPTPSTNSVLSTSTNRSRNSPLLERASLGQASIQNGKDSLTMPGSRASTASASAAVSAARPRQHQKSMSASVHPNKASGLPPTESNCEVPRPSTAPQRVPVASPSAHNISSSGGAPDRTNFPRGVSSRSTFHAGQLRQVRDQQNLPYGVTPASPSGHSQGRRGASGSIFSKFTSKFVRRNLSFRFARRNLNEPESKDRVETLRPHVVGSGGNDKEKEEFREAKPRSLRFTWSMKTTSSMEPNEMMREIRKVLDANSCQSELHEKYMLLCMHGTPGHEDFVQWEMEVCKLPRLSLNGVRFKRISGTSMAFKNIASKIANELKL
UniProt Q15418, whole entry: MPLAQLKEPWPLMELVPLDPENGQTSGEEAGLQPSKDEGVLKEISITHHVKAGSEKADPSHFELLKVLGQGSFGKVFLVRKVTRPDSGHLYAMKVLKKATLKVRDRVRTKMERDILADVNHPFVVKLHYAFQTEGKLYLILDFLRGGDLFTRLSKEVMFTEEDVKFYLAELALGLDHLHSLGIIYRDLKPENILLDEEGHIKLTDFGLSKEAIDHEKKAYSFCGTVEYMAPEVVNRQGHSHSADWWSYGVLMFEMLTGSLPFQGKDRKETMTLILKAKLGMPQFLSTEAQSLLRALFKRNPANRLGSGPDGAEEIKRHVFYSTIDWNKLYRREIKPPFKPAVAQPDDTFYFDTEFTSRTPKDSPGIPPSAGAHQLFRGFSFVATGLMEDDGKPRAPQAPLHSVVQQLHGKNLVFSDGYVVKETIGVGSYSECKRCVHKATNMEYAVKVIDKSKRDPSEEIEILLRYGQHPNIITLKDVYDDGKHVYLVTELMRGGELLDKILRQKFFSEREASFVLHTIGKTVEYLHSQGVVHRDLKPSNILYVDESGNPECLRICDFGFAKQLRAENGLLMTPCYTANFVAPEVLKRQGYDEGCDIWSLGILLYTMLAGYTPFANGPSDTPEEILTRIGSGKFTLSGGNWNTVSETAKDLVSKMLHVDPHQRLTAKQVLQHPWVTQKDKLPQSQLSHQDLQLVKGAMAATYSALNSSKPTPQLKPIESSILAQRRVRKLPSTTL
UniProt P0C1S8: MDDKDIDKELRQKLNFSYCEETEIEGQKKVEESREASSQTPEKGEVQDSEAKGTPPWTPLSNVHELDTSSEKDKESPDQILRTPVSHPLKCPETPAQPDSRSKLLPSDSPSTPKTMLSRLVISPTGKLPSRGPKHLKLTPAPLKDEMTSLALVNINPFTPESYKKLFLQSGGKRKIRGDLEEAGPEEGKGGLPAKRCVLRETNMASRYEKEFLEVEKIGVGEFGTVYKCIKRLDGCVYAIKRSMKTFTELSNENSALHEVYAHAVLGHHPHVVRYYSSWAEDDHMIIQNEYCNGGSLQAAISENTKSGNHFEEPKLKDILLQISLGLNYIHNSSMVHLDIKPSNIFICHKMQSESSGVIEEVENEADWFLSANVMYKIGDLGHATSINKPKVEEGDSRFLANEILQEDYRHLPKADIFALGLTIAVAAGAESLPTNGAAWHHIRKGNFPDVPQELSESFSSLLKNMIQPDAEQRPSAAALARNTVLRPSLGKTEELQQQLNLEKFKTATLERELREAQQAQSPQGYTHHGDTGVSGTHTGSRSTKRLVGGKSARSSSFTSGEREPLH

What was measured:
Conditions in all cases: at 1 µM
[1] = target: Calcium/calmodulin-dependent protein kinase type IV (Homo sapiens) (UniProt Q16566); test: Selectivity interaction (KinomeScan (DiscoverX)) EUB0001581a CAMK4
[2] = target: Cyclin-dependent kinase 3 (Homo sapiens) (UniProt Q00526); test: Selectivity interaction (KinomeScan (DiscoverX)) EUB0001581a CDK3
[3] = target: Cyclin-dependent kinase-like 2 (Homo sapiens) (UniProt Q92772); test: Selectivity interaction (KinomeScan (DiscoverX)) EUB0001581a CDKL2
[4] = target: Dual specificity protein kinase CLK2 (Homo sapiens, UniProt P49760); test: Selectivity interaction (KinomeScan (DiscoverX)) EUB0001581a CLK2
[5] = target: Ephrin type-A receptor 1 (Homo sapiens) (UniProt P21709); test: Selectivity interaction (KinomeScan (DiscoverX)) EUB0001581a EPHA1
[6] = tested on: Fibroblast growth factor receptor 3 (Homo sapiens), P22607 [G697C]; test: (§1) Selectivity interaction (KinomeScan (DiscoverX)) EUB0001581a FGFR3
[7] = target: Fibroblast growth factor receptor 3 (Homo sapiens, UniProt P22607); test: as §1
[8] = target: Glycogen synthase kinase-3 beta (Homo sapiens, UniProt P49841); test: Selectivity interaction (KinomeScan (DiscoverX)) EUB0001581a GSK3B
[9] = target: Interleukin-1 receptor-associated kinase 1 (Homo sapiens) (UniProt P51617); test: Selectivity interaction (KinomeScan (DiscoverX)) EUB0001581a IRAK1
[10] = tested on: Leucine-rich repeat serine/threonine-protein kinase 2 (Homo sapiens), Q5S007 [G2019S]; test: (§2) Selectivity interaction (KinomeScan (DiscoverX)) EUB0001581a LRRK2
[11] = target: Leucine-rich repeat serine/threonine-protein kinase 2 (Homo sapiens, UniProt Q5S007); test: as §2
[12] = target: Serine/threonine-protein kinase MAK (Homo sapiens) (UniProt P20794); test: Selectivity interaction (KinomeScan (DiscoverX)) EUB0001581a MAK
[13] = target: Dual specificity mitogen-activated protein kinase kinase 5 (Homo sapiens) (UniProt Q13163); test: Selectivity interaction (KinomeScan (DiscoverX)) EUB0001581a MAP2K5
[14] = target: Mitogen-activated protein kinase kinase kinase kinase 4 (Homo sapiens, UniProt O95819); test: Selectivity interaction (KinomeScan (DiscoverX)) EUB0001581a MAP4K4
[15] = target: Mitogen-activated protein kinase 1 (Homo sapiens, UniProt P28482); test: Selectivity interaction (KinomeScan (DiscoverX)) EUB0001581a MAPK1
[16] = target: Mitogen-activated protein kinase 11 (Homo sapiens) (UniProt Q15759); test: Selectivity interaction (KinomeScan (DiscoverX)) EUB0001581a MAPK11
[17] = target: Mitogen-activated protein kinase 4 (Homo sapiens) (UniProt P31152); test: Selectivity interaction (KinomeScan (DiscoverX)) EUB0001581a MAPK4
[18] = target: MAP kinase-activated protein kinase 2 (Homo sapiens, UniProt P49137); test: Selectivity interaction (KinomeScan (DiscoverX)) EUB0001581a MAPKAPK2
[19] = target: Serine/threonine-protein kinase MARK1 (Homo sapiens) (UniProt Q9P0L2); test: Selectivity interaction (KinomeScan (DiscoverX)) EUB0001581a MARK1
[20] = target: Serine/threonine-protein kinase MARK2 (Homo sapiens) (UniProt Q7KZI7); test: Selectivity interaction (KinomeScan (DiscoverX)) EUB0001581a MARK2
[21] = target: MAP/microtubule affinity-regulating kinase 4 (Homo sapiens) (UniProt Q96L34); test: Selectivity interaction (KinomeScan (DiscoverX)) EUB0001581a MARK4
[22] = target: Serine/threonine-protein kinase 26 (Homo sapiens, UniProt Q9P289); test: Selectivity interaction (KinomeScan (DiscoverX)) EUB0001581a STK26
[23] = target: Myosin-IIIb (Homo sapiens) (UniProt Q8WXR4); test: Selectivity interaction (KinomeScan (DiscoverX)) EUB0001581a MYO3B
[24] = target: Serine/threonine-protein kinase Nek9 (Homo sapiens) (UniProt Q8TD19); test: Selectivity interaction (KinomeScan (DiscoverX)) EUB0001581a NEK9
[25] = target: Serine/threonine-protein kinase NLK (Homo sapiens) (UniProt Q9UBE8); test: Selectivity interaction (KinomeScan (DiscoverX)) EUB0001581a NLK
[26] = target: Platelet-derived growth factor receptor beta (Homo sapiens, UniProt P09619); test: Selectivity interaction (KinomeScan (DiscoverX)) EUB0001581a PDGFRB
[27] = target: Cyclin-dependent kinase 15 (Homo sapiens) (UniProt Q96Q40); test: Selectivity interaction (KinomeScan (DiscoverX)) EUB0001581a CDK15
[28] = target: Phosphorylase b kinase gamma catalytic chain, skeletal muscle/heart isoform (Homo sapiens) (UniProt Q16816); test: Selectivity interaction (KinomeScan (DiscoverX)) EUB0001581a PHKG1
[29] = target: Protein kinase C delta type (Homo sapiens) (UniProt Q05655); test: Selectivity interaction (KinomeScan (DiscoverX)) EUB0001581a PRKCD
[30] = target: Serine/threonine-protein kinase D1 (Homo sapiens) (UniProt Q15139); test: Selectivity interaction (KinomeScan (DiscoverX)) EUB0001581a PRKD1
[31] = target: cGMP-dependent protein kinase 2 (Homo sapiens) (UniProt Q13237); test: Selectivity interaction (KinomeScan (DiscoverX)) EUB0001581a PRKG2
[32] = target: Protein-tyrosine kinase 6 (Homo sapiens, UniProt Q13882); test: Selectivity interaction (KinomeScan (DiscoverX)) EUB0001581a PTK6
[33] = target: Ribosomal protein S6 kinase alpha-1 (Homo sapiens, UniProt Q15418); test: Selectivity interaction (KinomeScan (DiscoverX)) EUB0001581a RPS6KA1
[34] = target: Serine/threonine-protein kinase Sgk3 (Homo sapiens) (UniProt Q96BR1); test: Selectivity interaction (KinomeScan (DiscoverX)) EUB0001581a SGK3
[35] = target: Serine/threonine-protein kinase SIK3 (Homo sapiens) (UniProt Q9Y2K2); test: Selectivity interaction (KinomeScan (DiscoverX)) EUB0001581a SIK3
[36] = target: Serine/threonine-protein kinase TAO2 (Homo sapiens) (UniProt Q9UL54); test: Selectivity interaction (KinomeScan (DiscoverX)) EUB0001581a TAOK2
[37] = target: Ephrin type-B receptor 6 (Homo sapiens) (UniProt O15197)
[38] = target: Mitogen-activated protein kinase 3 (Homo sapiens, UniProt P27361)
[39] = target: Myosin light chain kinase, smooth muscle (Homo sapiens, UniProt Q15746)
[40] = target: Wee1-like protein kinase 2 (Homo sapiens) (UniProt P0C1S8)

Q: Which % of control [1] does the source give for `C[C@@H]1C[C@H](N)C[C@H](c2ccncc2NC(=O)c2ccc(F)c(-c3c(F)cccc3F)n2)C1` here?
A: 73%

Q: What about the % of control [2] of the same compound?
A: 100%

Q: What about the % of control [3] of the same compound?
A: 100%

Q: And the % of control [4]?
A: 52%

Q: What about the % of control [5] of the same compound?
A: 100%

Q: And the % of control [6]?
A: 100%

Q: What about the % of control [7] of the same compound?
A: 100%

Q: What about the % of control [8] of the same compound?
A: 21%

Q: And the % of control [9]?
A: 100%

Q: And the % of control [10]?
A: 79%

Q: And the % of control [11]?
A: 100%

Q: What about the % of control [12] of the same compound?
A: 91%

Q: And the % of control [13]?
A: 66%

Q: And the % of control [14]?
A: 100%

Q: What about the % of control [15] of the same compound?
A: 100%

Q: What about the % of control [16] of the same compound?
A: 100%

Q: What about the % of control [17] of the same compound?
A: 99%

Q: And the % of control [18]?
A: 93%

Q: And the % of control [19]?
A: 81%

Q: What about the % of control [20] of the same compound?
A: 81%

Q: What about the % of control [21] of the same compound?
A: 77%

Q: And the % of control [22]?
A: 100%

Q: What about the % of control [23] of the same compound?
A: 100%

Q: What about the % of control [24] of the same compound?
A: 100%

Q: What about the % of control [25] of the same compound?
A: 100%

Q: What about the % of control [26] of the same compound?
A: 59%

Q: And the % of control [27]?
A: 100%

Q: And the % of control [28]?
A: 100%

Q: What about the % of control [29] of the same compound?
A: 72%

Q: What about the % of control [30] of the same compound?
A: 32%

Q: What about the % of control [31] of the same compound?
A: 100%

Q: And the % of control [32]?
A: 100%

Q: And the % of control [33]?
A: 73%

Q: And the % of control [34]?
A: 68%

Q: And the % of control [35]?
A: 100%

Q: What about the % of control [36] of the same compound?
A: 76%

Q: What about the % of control [37] of the same compound?
A: 96%

Q: What about the % of control [38] of the same compound?
A: 95%

Q: What about the % of control [39] of the same compound?
A: 96%

Q: What about the % of control [40] of the same compound?
A: 96%
